This experiment can be described thus: qHTS Assay for Modulators of Lamin A Splicing. Particulars: HeLa LMNA splicing GFP/RFP minigene ratio, 48 h. Put shortly:
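S3 HeLa stable clones carrying a lamin A-EGFP splicing minigene plus DsRed2 were seeded at 600 cells/well in Opti-MEM with 2% FBS, pin-dosed and incubated 48 h at 37°C. Acumen cytometry (488 nm) gave the GFP/RFP total-intensity ratio.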

The mark [1] stands for this setting: measured here: RFP viability control channel.
Setting [2] is: measured here: GFP splicing reporter channel.

Some of the results follow. The main result of the screen is listed elsewhere. These columns were measured beside it and carry no call. Most of these compounds were active or inconclusive in the main read-out, so they are no random draw. Potencies come from curve fits of mixed quality, noted in brackets.

Broadly, the AC50 is the midpoint of the concentration-response curve, whichever way the signal moves. For `Cc1ccc(NC(=O)c2ccc(-n3cccn3)c([N+](=O)[O-])c2)cc1C`, the concentration at half-maximal activity (AC50) under setting [1] is 35.5 µM [rising, single point].
Same read-out and setting: the same measure for `CCn1c2ccccc2c2cc(C3N=C(N)Nc4nc5ccccc5n43)ccc21` (configuration not stated): 1.12 µM [rising, partial curve, poor fit].
As for `COC(=O)C1=C(C)NC=C([N+](=O)[O-])C1c1ccc(OC)cc1` (configuration not stated), the concentration at half-maximal activity (AC50) under setting [2] is 15.8 µM [rising, single point] and the half-maximal activity concentration (AC50) under setting [1] is 15.8 µM [rising, single point].
Turning to `Cc1noc(/C=C/c2ccco2)c1S(=O)(=O)N1CCC(C(=O)N2CCc3ccccc3C2)CC1`, the AC50 is, setting by setting: under setting [2], 11.2 µM [rising, partial curve]; under setting [1], 15.8 µM [rising, partial curve].
With `CC(=O)Nc1sc(N/N=C\c2ccccc2Cl)nc1-c1cccs1`, the AC50 was 0.501 µM [rising, full curve, poor fit] under setting [2] and 0.398 µM [rising, full curve] under setting [1].
As for `CC1(C)Cc2ccccc2-c2nc(-c3ccccc3)oc(=O)c21`, the concentration at half-maximal activity (AC50) under setting [1] was 5.62 µM [rising, partial curve].
As to `CCCCOc1ccc(C(=O)Nc2nc3c(s2)CC(C)CC3)cc1` (configuration not stated), under setting [1], the half-maximal activity concentration (AC50) was 0.0126 µM [falling, full curve].
Same read-out and setting: the same measure for `CC(=O)c1cc(-c2ccccc2)n(CCC(=O)NC2CCCCCC2)c1C`: 35.5 µM [rising, single point].
With `Cc1ccc(Cl)cc1Nc1nc(-c2sc(NC(=O)C(C)(C)C)nc2C)cs1`, the concentration at half-maximal activity (AC50) is, setting by setting: under setting [2], 17.8 µM [rising, single point]; under setting [1], 15.8 µM [rising, partial curve].
For the compound `C=CCNC(=S)N/N=C/c1ccc(N(CC)Cc2ccccc2)cc1`, the half-maximal activity concentration (AC50) by setting is: under setting [2], 12.6 µM [rising, partial curve]; under setting [1], 11.2 µM [rising, partial curve].
As to `O=C1CCCc2ccccc2N1Cc1ccc(Cl)cc1Cl`, the concentration at half-maximal activity (AC50) under setting [1] is 12.6 µM [rising, single point].
Same read-out and setting: the same measure for `CCn1c(=O)cc(SCC(=O)N2CCN(c3ccccc3OC)CC2)c2ccccc21`: 11.2 µM [rising, partial curve]; for `Cc1ccc([N+](=O)[O-])c(OCCN2CCCCCC2)c1`: 12.6 µM [rising, single point].
With `Cc1cccc(NC(=O)Cn2c(C)c(C#N)c3ccccc32)c1C`, the AC50 by setting is: under setting [2], 5.62 µM [falling, single point]; under setting [1], 5.62 µM [falling, single point].
For `CCCn1c(SCC(=O)c2cc(C)c(C)cc2C)n[nH]c1=O`, the concentration at half-maximal activity (AC50) under setting [1] was 35.5 µM [rising, single point].
For the compound `O=C(CNC(=O)c1cccc(F)c1)N/N=C/c1cccc([N+](=O)[O-])c1`, the half-maximal activity concentration (AC50) under setting [2] is 6.31 µM [rising, single point].
